In all, about 580,000 compounds went through this assay and about 6,100 (1.1%) were called active. This list was built around the results that the source calls inconclusive (neither active nor inactive); the mix of calls is not that of the screen. The call rests on the fitted dose curve; in most records, active means well fitted inhibition curve with a large enough effect; inconclusive means small, poorly fitted or top-dose-only effect, or another doubt; inactive means no such curve, though single readings can be large or run the other way. Potencies of inconclusive entries are doubtful fits and often do not repeat.
molecular target: Polyunsaturated fatty acid lipoxygenase ALOX12 (Homo sapiens) (UniProt P18054); assay: Primary qHTS assay for inhibitors of human arachidonate 12S-lipoxygenase (ALOX12): Round 2; conditions: purified 12hLO, xylenol orange hydroperoxide absorbance; activity change, negative = inhibition: at 108 µM (top of the series) unless noted
How it was run: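 Purified human 12hLO (150 nM final) in 25 mM Hepes, 0.01% Triton X-100, pH 7.0 was preincubated 15 min at room temperature with compound. Then 40 uM arachidonic acid was added, 30 min. Hydroperoxide was read by Fe-XO absorbance ratio 573/405 nm.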
On the % scale 0 is the no-effect control and ±100 the full control effect; potency means the concentration at half of the fitted maximal effect.

Sequences of proteins named here, by UniProt entry; tags and fusion partners are left off. A change or cut given only in a name is not applied to a line headed by its entry.
UniProt P18054: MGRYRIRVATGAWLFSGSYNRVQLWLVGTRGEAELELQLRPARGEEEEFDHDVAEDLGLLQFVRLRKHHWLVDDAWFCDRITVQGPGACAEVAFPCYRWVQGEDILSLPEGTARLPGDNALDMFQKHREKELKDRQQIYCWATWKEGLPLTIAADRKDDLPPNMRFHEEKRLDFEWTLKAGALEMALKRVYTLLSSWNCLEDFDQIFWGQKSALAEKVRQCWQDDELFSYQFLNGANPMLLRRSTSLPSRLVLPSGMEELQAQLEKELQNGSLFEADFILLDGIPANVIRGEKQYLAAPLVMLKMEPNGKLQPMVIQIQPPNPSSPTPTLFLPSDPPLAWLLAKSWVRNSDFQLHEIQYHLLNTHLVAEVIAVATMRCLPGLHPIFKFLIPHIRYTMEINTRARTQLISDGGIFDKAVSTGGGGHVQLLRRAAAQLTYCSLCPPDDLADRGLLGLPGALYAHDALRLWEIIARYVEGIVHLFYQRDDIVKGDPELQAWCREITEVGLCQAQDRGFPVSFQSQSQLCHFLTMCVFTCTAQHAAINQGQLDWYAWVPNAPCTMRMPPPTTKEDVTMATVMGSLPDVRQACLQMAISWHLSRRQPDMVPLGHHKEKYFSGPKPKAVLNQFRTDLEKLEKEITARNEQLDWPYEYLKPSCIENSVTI

**Q.** For `CCN(CC)c1ccc(/C=N/N2CCN(Cc3ccccc3)CC2)cc1`, which Potency is on record?
**A.** inconclusive: 89.1 µM [inhibitor, single point]

**Q.** `O=C(N/N=C/c1ccc(Cl)cc1Cl)c1ccc2nc[nH]c2c1` was tested. Which “activity change, negative = inhibition” value did it give?
**A.** inactive: 3.26%

**Q.** For `CCc1ccc(NC(=O)CSc2nccn2-c2ccc(F)cc2)cc1`, which “activity change, negative = inhibition” value is on record?
**A.** inactive: -4.15%

**Q.** `O=C(Nc1ccncc1)Nc1cccc(Cl)c1` was tested. Which Potency did it give?
**A.** inconclusive: 12.6 µM [inhibitor, partial curve, poor fit]

**Q.** For `CCc1ccccc1NC(=O)CNCC(=O)Nc1ccccc1CC`, which Potency is on record?
**A.** inconclusive: 1.78 µM [inhibitor, partial curve, poor fit]

**Q.** With `COc1ccc(-c2nnc3sc(-c4cc(C(C)(C)C)nn4C)nn23)cc1OC` as the compound, how does the Potency read?
**A.** inconclusive: 17.8 µM [inhibitor, single point]

**Q.** Which “activity change, negative = inhibition” value does the source give for `Cc1nnc(SCC(=O)NCc2ccc(F)cc2)[nH]c1=O` here?
**A.** inactive: -13.1%

**Q.** Which Potency does the source give for `COCCNC(=O)c1onc(CCl)c1C(=O)OC` here?
**A.** inconclusive: 44.7 µM [inhibitor, partial curve, poor fit]

**Q.** Which Potency does the source give for `Cc1cc(C(=O)Nc2ccc(I)cc2)c(C)o1` here?
**A.** inconclusive: 50.1 µM [inhibitor, partial curve, poor fit]

**Q.** `CCCCn1nc(C(=O)N2CCC(C(=O)N3CCc4ccccc4C3)CC2)c2ccccc2c1=O` was tested. Which Potency did it give?
**A.** inconclusive: 79.4 µM [inhibitor, partial curve, poor fit]

**Q.** For `CCc1ccc(NC(=O)Cn2nc(-c3ccc(C)c(S(=O)(=O)N4CCOCC4)c3)ccc2=O)cc1`, which Potency is on record?
**A.** inconclusive: 6.31 µM [inhibitor, full curve, poor fit]

**Q.** With `CCc1ccc(NC(=O)C(C)Sc2cccc[n+]2[O-])cc1` (stereo not drawn) as the compound, how does the Potency read?
**A.** inconclusive: 31.6 µM [inhibitor, partial curve]

**Q.** `CCc1ccc(S(=O)(=O)N2CCC3(CC2)NC(=O)c2ccccc2N3)cc1` was tested. Which “activity change, negative = inhibition” value did it give?
**A.** inactive: 10.4%

**Q.** `CCCCn1c(CCC(=O)NCc2ccc(OC)cc2)nc2c1c(=O)[nH]c(=O)n2CCCC` was tested. Which “activity change, negative = inhibition” value did it give?
**A.** inactive: -28.3%

**Q.** How did the “activity change, negative = inhibition” value turn out when `O=S(=O)(Nc1ccc(O)cc1)c1cccc2cccnc12` was run?
**A.** inactive: -11%

**Q.** `O=C(Nc1ccc(Br)c(Cl)c1)c1ccc(-c2ccccc2)cc1` was tested. Which “activity change, negative = inhibition” value did it give?
**A.** inactive: -19.6%

**Q.** Which Potency does the source give for `Cn1c(SCc2ccccc2)nc2c1c(=O)[nH]c(=O)n2C` here?
**A.** inconclusive: 5.62 µM [inhibitor, partial curve, poor fit]

**Q.** For `CN(Cc1ccc(N2CCCCC2)cc1)C(=O)c1ccc2c(c1)C(O)CCCCCN2C` (stereo not drawn), which Potency is on record?
**A.** inconclusive: 7.94 µM [inhibitor, full curve]

**Q.** Which Potency does the source give for `COc1ccc(N2CCN(C(=O)Cn3c(N4CCc5ccccc5C4)nc(C)cc3=O)CC2)cc1` here?
**A.** inconclusive: 14.1 µM [inhibitor, partial curve, poor fit]

**Q.** `C[C@@H]1CN([C@@H](C)CO)C(=O)CCCn2nncc2CO[C@H]1CN(C)S(=O)(=O)c1ccccc1` was tested. Which “activity change, negative = inhibition” value did it give?
**A.** inactive: -1.69%

**Q.** How did the Potency turn out when `COc1ccc(CC(=O)NCC2CCCN(Cc3ccc(SC)cc3)C2)cc1` (stereo not drawn) was run?
**A.** inconclusive: 112 µM [inhibitor, single point]

**Q.** Which Potency does the source give for `CC(=O)Nc1ccc(-c2csc(Nc3cc(C)ccc3C)n2)cc1` here?
**A.** inconclusive: 56.2 µM [inhibitor, partial curve, poor fit]

**Q.** Which Potency does the source give for `COC(=O)c1cc(NC(=O)c2nccnc2C(=O)O)cc(C(=O)OC)c1` here?
**A.** inconclusive: 35.5 µM [inhibitor, partial curve]

**Q.** Which Potency does the source give for `Cc1cccc(C)c1NC(=O)C(C1CC1)N1C(=O)C(=O)c2ccccc21` (stereo not drawn) here?
**A.** inconclusive: 44.7 µM [inhibitor, partial curve]

**Q.** How did the Potency turn out when `O=C(Nc1nc2c(s1)CCCC2=O)c1cnccn1` was run?
**A.** inconclusive: 0.224 µM [inhibitor, full curve, poor fit]

**Q.** For `O=C1OC(c2cccc3c(F)cccc23)c2ccccc21` (stereo not drawn), which Potency is on record?
**A.** inconclusive: 44.7 µM [inhibitor, partial curve, poor fit]

**Q.** With `CCn1c(/C=N/Nc2ccc(C(=O)O)cc2)nc2ccccc21` as the compound, how does the Potency read?
**A.** inconclusive: 50.1 µM [inhibitor, partial curve, poor fit]

**Q.** How did the Potency turn out when `CC(=O)C1=C(C)NC(=S)NC1c1cc([N+](=O)[O-])ccc1O` (stereo not drawn) was run?
**A.** inconclusive: 56.2 µM [inhibitor, partial curve, poor fit]

**Q.** With `CCc1ccc(NC(=O)CCc2nnc3ccc(NCc4cccnc4)nn23)cc1` as the compound, how does the “activity change, negative = inhibition” value read?
**A.** inactive: 12.3%

**Q.** For `COc1ccc(Cc2n[nH]c(=S)n2-c2ccc3c(c2)OCCO3)cc1`, which Potency is on record?
**A.** inconclusive: 50.1 µM [inhibitor, partial curve, poor fit]

**Q.** For `CNC(=S)NC12CC3CC(CC(C3)C1)C2`, which Potency is on record?
**A.** inconclusive: 63.1 µM [inhibitor, partial curve, poor fit]

**Q.** For `COc1ccc(NC(=O)N(C)C[C@H]2Oc3ccc(NC(=O)Nc4ccc(C(F)(F)F)cc4)cc3C(=O)N([C@H](C)CO)C[C@@H]2C)cc1`, which Potency is on record?
**A.** inconclusive: 89.1 µM [inhibitor, single point]

**Q.** Which “activity change, negative = inhibition” value does the source give for `COc1cc2c(c(OC)c1OC)C1(CCCCC1)CC2NS(=O)(=O)C(C)C` (stereo not drawn) here?
**A.** inactive: 1.23%
